Experimental data reported in US20130136691A1, “GASTRIN […] PEPTIDE COMPOUNDS” (priority 2008, published 2013).

Tested on: GRP receptor binding in ZR-75-1 human breast cancer cells
Test: 4-hydroxytamoxifen effect on 177Lu-AMBA binding and proliferation in ZR-75-1 cells (2 to 12 days)
Type: cell-based
Conditions: viable cell basis

CC/C(=C(\c1ccc(O)cc1)c1ccc(OCCN(C)C)cc1)c1ccccc1 [Compound 4-Hydroxy-Tamoxifen]
% change in ^177Lu-AMBA uptake (1 nM): −42.6 (±7.1) %
% change in ^177Lu-AMBA uptake (10 nM): −57.3 (±8.4) %
% change in ^177Lu-AMBA uptake (100 nM): −69.2 (±4.9) %
